From paper PMC8000447, “Assessment of Finite and Infinite Dose In Vitro Experiments in Transdermal Drug Delivery” (Pharmaceutics, 2021) come the findings set out here.

This data set in a line: Penetration assay with finite dosage using vertical Franz diffusion cells. It is filed as in vitro ADME, pig. The note with it: finite dose 20 µL, 24 h exposure.
For the molecule `Cn1c(=O)c2c(ncn2C)n(C)c1=O` [Caffeine, caffeine], the “Mass balance (%)” value amounted to 98.92 ± 1.32%.
As to `O=C(O)Cc1ccccc1Nc1c(Cl)cccc1Cl` [Diclofenac sodium], the “Mass balance (%)” value was found to be 103.80 ± 9.21%.
The same measure for `CC(C)Cc1ccc(C(C)C(=O)O)cc1` (stereo not drawn) [Ibuprofen, ibuprofen]: 92.81 ± 13.97%.
